Amino acid sequences for entries named in this document (tags omitted). A change or cut given only in a name is not applied to a line headed by its entry. Residues count along the entry.
UniProt Q63342: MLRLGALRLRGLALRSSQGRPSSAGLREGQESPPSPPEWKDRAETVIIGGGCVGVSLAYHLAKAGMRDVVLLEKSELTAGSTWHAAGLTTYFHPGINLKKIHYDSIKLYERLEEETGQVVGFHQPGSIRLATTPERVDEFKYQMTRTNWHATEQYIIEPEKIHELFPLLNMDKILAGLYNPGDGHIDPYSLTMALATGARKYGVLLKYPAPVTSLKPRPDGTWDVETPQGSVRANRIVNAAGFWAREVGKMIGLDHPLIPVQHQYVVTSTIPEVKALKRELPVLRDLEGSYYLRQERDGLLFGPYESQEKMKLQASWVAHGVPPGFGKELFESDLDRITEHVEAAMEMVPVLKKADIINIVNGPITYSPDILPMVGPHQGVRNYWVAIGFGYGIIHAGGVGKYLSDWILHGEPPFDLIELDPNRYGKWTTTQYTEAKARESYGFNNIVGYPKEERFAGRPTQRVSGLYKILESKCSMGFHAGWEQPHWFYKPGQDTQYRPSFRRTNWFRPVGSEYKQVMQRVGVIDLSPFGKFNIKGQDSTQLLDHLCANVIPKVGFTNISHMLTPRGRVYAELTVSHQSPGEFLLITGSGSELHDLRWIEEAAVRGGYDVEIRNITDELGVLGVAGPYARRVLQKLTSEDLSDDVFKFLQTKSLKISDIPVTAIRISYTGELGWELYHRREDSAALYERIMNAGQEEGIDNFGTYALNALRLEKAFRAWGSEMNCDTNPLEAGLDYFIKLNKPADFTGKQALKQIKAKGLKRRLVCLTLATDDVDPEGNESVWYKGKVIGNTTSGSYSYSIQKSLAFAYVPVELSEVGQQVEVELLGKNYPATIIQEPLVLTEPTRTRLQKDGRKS
UniProt P26772: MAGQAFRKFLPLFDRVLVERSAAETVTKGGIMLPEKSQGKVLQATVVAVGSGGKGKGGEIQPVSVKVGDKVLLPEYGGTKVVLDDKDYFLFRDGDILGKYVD
UniProt P63039, residues 27-573: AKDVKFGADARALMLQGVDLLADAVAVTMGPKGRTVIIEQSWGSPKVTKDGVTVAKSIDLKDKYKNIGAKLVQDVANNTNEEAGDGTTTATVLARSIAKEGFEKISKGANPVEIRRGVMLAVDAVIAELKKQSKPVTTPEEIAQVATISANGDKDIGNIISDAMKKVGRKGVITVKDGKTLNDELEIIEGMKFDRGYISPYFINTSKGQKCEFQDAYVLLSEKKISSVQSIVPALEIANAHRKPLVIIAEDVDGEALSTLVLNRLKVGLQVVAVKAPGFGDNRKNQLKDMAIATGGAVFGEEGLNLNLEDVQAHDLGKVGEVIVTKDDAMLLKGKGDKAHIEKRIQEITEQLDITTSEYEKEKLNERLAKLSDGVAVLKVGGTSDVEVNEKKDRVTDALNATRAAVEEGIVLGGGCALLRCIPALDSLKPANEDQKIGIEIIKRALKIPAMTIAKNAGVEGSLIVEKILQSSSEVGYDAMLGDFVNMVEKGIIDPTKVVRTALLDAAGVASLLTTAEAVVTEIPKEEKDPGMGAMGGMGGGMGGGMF

In PMC4406087, “Remaining challenges in cellular flavin cofactor homeostasis and flavoprotein biogenesis” (Frontiers in Chemistry, 2015):

Biological target: recombinant 6His-apo-Me2GlyDH of the re-binding experiment (rat) (UniProt Q63342)
Assay: pull-down; 6His-apo-Me2GlyDH (10 μg) incubated 1 h at 37°C in 50 mM Tris-HCl pH 7.5, 5 mM MgCl2, 0.5% Triton X-100, 5 mM ATP, 20 μM FAD with rat liver mitochondrial matrix or its DEAE fractions (100 μg); re-isolated on Ni-Chelating Sepharose, washed with 50 mM imidazole, eluted with 500 mM …; immunoblot with anti-Hsp60 and anti-Hsp10; only the target purified

Row | binding | Substance
1 | binds | Hsp10 of rat liver mitochondrial matrix (from UniProt P26772 1-102)
2 | binds | Hsp60 of rat liver mitochondrial matrix (from UniProt P63039 27-573)

Results are given in words; binding and its absence hold for the method and conditions named. In cells and extracts the contact can be indirect. Binding calls can cover weak binding; strength is not graded here.
